In US20160237154A1 (SORRENTO THERAPEUTICS, published 2016):
Results are given in words; binding and its absence hold for the method and conditions named. Some results given as binding are weak or reduced against the parent protein; the word gives no strength. Where a sequence is shown, tags or fusion partners need not be part of it.

Molecular target: T1, cynomolgus CTLA4/His (cynomolgus) (UniProt G7PL88)
T1 sequence: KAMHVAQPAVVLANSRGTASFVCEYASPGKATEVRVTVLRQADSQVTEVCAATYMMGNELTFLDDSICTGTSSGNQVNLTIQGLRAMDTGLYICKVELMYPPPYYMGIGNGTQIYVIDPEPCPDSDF
Test: ELISA, CTLA4/His captured on Ni-NTA plate, antibody ~1 ug/mL, anti-human Fc-HRP

B1: CT1E1 (antibody, V domains shown)
VH: EVQLVESGGGLVQPGRSLRLSCRGSNFNFDDLAISWVRQAPGKGLEWLGFVRSKAYGETTDYVASVKGRFTISRDDSKFIAWLQMDSLKTDDTAVYYCTTFNYWGQGTLVTVSS
VL: QPVLTQPPSVSVAPGKTARISCGGNNIASEAVHWYQKKPGQAPVLVIYYDSDRPSGIPERFSGSNSGNTATLRISRVDAGDEADYYCQVWDRTTDQPVFGGGTKLTVL
notes: also called human anti-CTLA4 antibody CT1E1
- binding: binds
